# Some entries share one result that the patent states for a list of compounds.
# How the values were obtained:
# Assay type in all cases: in vivo
# Sphaerotheca fuliginea = experiment: Sphaerotheca test (cucumber)/protective; settings: cucumber plants, protective, 500 ppm active compound, evaluation 7 days after inoculation
# Alternaria solani = experiment: Alternaria test (tomato)/protective; settings: tomato plants, protective, 100 ppm active compound, evaluation 3 days after inoculation
# Puccinia triticina = Puccinia triticina test (wheat)/protective; settings: wheat plants, protective, 500 ppm active compound, evaluation 8 days after inoculation
# Uromyces appendiculatus = experiment: Uromyces test (bean)/protective; settings: bean plants, protective, 10 ppm active compound, evaluation 10 days after inoculation
SMILES,efficacy (Sphaerotheca fuliginea) [%],efficacy (Alternaria solani) [%],efficacy (Puccinia triticina) [%],efficacy (Uromyces appendiculatus) [%]
"Fc1ccc(Oc2ccccc2-c2csc(N=C3CCCCN3)n2)c(F)c1 [compound 7, 4-[2-(2,4-difluorophenoxy)phenyl]-N-[(2E/Z)-piperidin-2-ylidene]-1,3-thiazole-2-amine]",≥ 70,≥ 70,≥ 70,
"FC(F)(F)c1cccc(-c2csc(N=C3CCCCN3)n2)c1Cl [compound 8, 4-[2-chloro-3-(trifluoromethyl)phenyl]-N-[(2E/Z)-piperidin-2-yl-idene]-1,3-thiazole-2-amine]",,≥ 70,≥ 70,
"Fc1ccc(Oc2ccc(-c3csc(N=C4CCCCN4)n3)cc2)c(F)c1 [compound 9, 4-[4-(2,4-difluorophenoxy)phenyl]-N-[(2E/Z)-piperidin-2-ylidene]-1,3-thiazole-2-amine]",,,≥ 70,
"c1ccc(Oc2ccccc2-c2csc(N=C3CCCCN3)n2)cc1 [compound 10, 4-(2-phenoxyphenyl)-N-[(2E/Z)-piperidin-2-ylidene]-1,3-thiazole-2-amine]",≥ 70,,≥ 70,
"Clc1ccc(Oc2ccccc2-c2csc(N=C3CCCCN3)n2)c(Cl)c1 [compound 11, 4-[2-(2,4-dichlorophenoxy)phenyl]N-[(2E/Z)-piperidin-2-ylidene]-1,3-thiazole-2-amine]",≥ 70,,≥ 70,
"FC(F)(F)c1cc(Oc2ccccc2-c2csc(N=C3CCCCN3)n2)ccc1Cl [compound 14, 4-{2-[4-chloro-3-(trifluoromethyl)phenoxy]phenyl}-N-[(2E/Z)-piperidin-2-ylidene]-1,3-thiazole-2-amine]",≥ 70,,≥ 70,
"CC(=O)N1CCCCC1=Nc1nc(-c2ccccc2Oc2ccc(F)cc2F)cs1 [compound 16, 1-[(2E/Z)-2-({4-[2-(2,4-difluorophenoxy)phenyl]-1,3-thiazol-2-yl}imino)piperidin-1-yl]ethanone]",,,≥ 70,≥ 70
"CC(=O)N1CCCCC1=Nc1nc(-c2ccccc2Oc2ccccc2)cs1 [compound 17, 1-[(2E/Z)-2-{[4-(2-phenoxyphenyl)-1,3-thiazol-2-yl]imino}piperidin-1-yl]ethanone]",≥ 70,≥ 70,≥ 70,≥ 70
"C=CCOc1ccccc1-c1csc(N=C2CCCCN2)n1 [compound 22, N-[(2E/Z)-piperidin-2-ylidene]-4-[2-(prop-2-en-1-yloxy)phenyl]-1,3-thiazole-2-amine]",≥ 70,,≥ 70,
"Clc1cccc(-c2csc(N=C3CCCCN3)n2)c1Cl [compound 24, 4-(2,3-dichlorophenyl)-N-[(2E/Z)-piperidin-2-ylidene]-1,3-thiazole-2-amine]",,,≥ 70,
"Fc1c(-c2csc(N=C3CCCCN3)n2)cccc1C(F)(F)F [compound 26, 4-[2-fluoro-3-(trifluoromethyl)phenyl]-N-[(2E/Z)-piperidin-2-ylidene]-1,3-thiazole-2-amine]",≥ 70,,≥ 70,≥ 70
"COc1ccc(-c2csc(N=C3CCCCN3)n2)cc1OC [compound 27, 4-(3,4-dimethoxyphenyl)-N-[(2E/Z)-piperidin-2-ylidene]-1,3-thiazole-2-amine]",,,≥ 70,
"COc1ccc(-c2cccc(-c3csc(N=C4CCCCN4)n3)c2)cc1 [compound 68, 4-(4′-methoxybiphenyl-3-yl)-N-[(2E/Z)-piperidin-2-ylidene]-1,3-thiazole-2-amine]",≥ 70,,≥ 70,
"Fc1ccc(Oc2ccccc2-c2csc(N=C3CCCCN3)n2)cc1 [compound 75, 4-[2-(4-fluorophenoxy)phenyl]-N-[(2E/Z)-piperidin-2-ylidene]-1,3-thiazole-2-amine]",≥ 70,≥ 70,,≥ 70
"c1ccc(Cc2ccccc2-c2csc(N=C3CCCCN3)n2)cc1 [compound 81, 4-(2-benzylphenyl)-N-[(2E/Z)-piperidin-2-ylidene]-1,3-thiazole-2-amine]",≥ 70,≥ 70,≥ 70,≥ 70
"Fc1cc(F)c(Oc2ccccc2-c2csc(N=C3CCCCN3)n2)c(F)c1 [compound 82, N-[(2E/Z)-piperidin-2-ylidene]-4-[2-(2,4,6-trifluorophenoxy)phenyl]-1,3-thiazole-2-amine]",≥ 70,,≥ 70,
"Fc1cccc(Oc2ccccc2-c2csc(N=C3CCCCN3)n2)c1 [compound 83, 4-[2-(3-fluorophenoxy)phenyl]-N-[(2E/Z)-piperidin-2-ylidene]-1,3-thiazole-2-amine]",≥ 70,≥ 70,≥ 70,≥ 70
"Brc1ccc(Oc2ccccc2-c2csc(N=C3CCCCN3)n2)cc1 [compound 84, 4-[2-(4-bromophenoxy)phenyl]-N-[(2E/Z)-piperidin-2-ylidene]-1,3-thiazole-2-amine]",≥ 70,,≥ 70,
"Clc1cccc(Oc2ccccc2-c2csc(N=C3CCCCN3)n2)c1 [compound 85, 4-[2-(3-chlorophenoxy)phenyl]-N-[(2E/Z)-piperidin-2-ylidene]-1,3-thiazole-2-amine]",≥ 70,,≥ 70,
"Brc1ccccc1Oc1ccccc1-c1csc(N=C2CCCCN2)n1 [compound 86, 4-[2-(2-bromophenoxy)phenyl]-N-[(2E/Z)-piperidin-2-ylidene]-1,3-thiazole-2-amine]",≥ 70,≥ 70,,≥ 70
"Brc1cccc(Oc2ccccc2-c2csc(N=C3CCCCN3)n2)c1 [compound 87, 4-[2-(3-bromophenoxy)phenyl]-N-[(2E/Z)-piperidin-2-ylidene]-1,3-thiazole-2-amine]",≥ 70,≥ 70,≥ 70,
"Fc1ccc(Cc2ccccc2-c2csc(N=C3CCCCN3)n2)c(F)c1 [compound 88, 4-[2-(2,4-difluorobenzyl)phenyl]-N-[(2E/Z)-piperidin-2-ylidene]-1,3-thiazole-2-amine]",≥ 70,≥ 70,≥ 70,
"Fc1ccc(Cc2ccccc2-c2csc(N=C3CCCCN3)n2)cc1 [compound 90, 4-[2-(4-fluorobenzyl)phenyl]-N-[(2E/Z)-piperidin-2-ylidene]-1,3-thiazole-2-amine]",≥ 70,≥ 70,≥ 70,≥ 70
"Clc1ccc(Cc2ccccc2-c2csc(N=C3CCCCN3)n2)cc1 [compound 93, 4-[2-(4-chlorobenzyl)-phenyl]-N-[(2E/Z)-piperidin-2-ylidene]-1,3-thiazole-2-amine]",≥ 70,≥ 70,≥ 70,
"c1ccc(Oc2ccccc2-c2csc(N=C3CCCN3)n2)cc1 [compound 98, 4-(2-phenoxyphenyl)-N-[(2E/Z)-pyrrolidin-2-ylidene]-1,3-thiazole-2-amine]",≥ 70,≥ 70,≥ 70,
"Clc1ccc(Oc2ccccc2-c2csc(N=C3CCCN3)n2)c(Cl)c1 [compound 99, 4-[2-(2,4-dichlorophenoxy)phenyl]-N-[(2E/Z)-pyrrolidin-2-ylidene]-1,3-thiazole-2-amine]",≥ 70,,≥ 70,
"Fc1ccc(Oc2ccccc2-c2csc(N=C3CCCN3)n2)c(F)c1 [compound 102, 4-[2-(2,4-difluorophenoxy)phenyl]-N-[(2E/Z)-pyrrolidin-2-ylidene]-1,3-thiazole-2-amine]",≥ 70,,≥ 70,

# Source: patent US20110053770A1, “SUBSTITUTED AMINOTHIAZOLES AND THEIR USE AS FUNGICIDES” (BAYER CROPSCIENCE AG, priority 2009, published 2011)
